Drawing on article PMC11171801, this text covers binding for 2 molecules.

Protein sequences, listed by entry. Tags and fused reporters are not part of them.
UniProt Q96PY5: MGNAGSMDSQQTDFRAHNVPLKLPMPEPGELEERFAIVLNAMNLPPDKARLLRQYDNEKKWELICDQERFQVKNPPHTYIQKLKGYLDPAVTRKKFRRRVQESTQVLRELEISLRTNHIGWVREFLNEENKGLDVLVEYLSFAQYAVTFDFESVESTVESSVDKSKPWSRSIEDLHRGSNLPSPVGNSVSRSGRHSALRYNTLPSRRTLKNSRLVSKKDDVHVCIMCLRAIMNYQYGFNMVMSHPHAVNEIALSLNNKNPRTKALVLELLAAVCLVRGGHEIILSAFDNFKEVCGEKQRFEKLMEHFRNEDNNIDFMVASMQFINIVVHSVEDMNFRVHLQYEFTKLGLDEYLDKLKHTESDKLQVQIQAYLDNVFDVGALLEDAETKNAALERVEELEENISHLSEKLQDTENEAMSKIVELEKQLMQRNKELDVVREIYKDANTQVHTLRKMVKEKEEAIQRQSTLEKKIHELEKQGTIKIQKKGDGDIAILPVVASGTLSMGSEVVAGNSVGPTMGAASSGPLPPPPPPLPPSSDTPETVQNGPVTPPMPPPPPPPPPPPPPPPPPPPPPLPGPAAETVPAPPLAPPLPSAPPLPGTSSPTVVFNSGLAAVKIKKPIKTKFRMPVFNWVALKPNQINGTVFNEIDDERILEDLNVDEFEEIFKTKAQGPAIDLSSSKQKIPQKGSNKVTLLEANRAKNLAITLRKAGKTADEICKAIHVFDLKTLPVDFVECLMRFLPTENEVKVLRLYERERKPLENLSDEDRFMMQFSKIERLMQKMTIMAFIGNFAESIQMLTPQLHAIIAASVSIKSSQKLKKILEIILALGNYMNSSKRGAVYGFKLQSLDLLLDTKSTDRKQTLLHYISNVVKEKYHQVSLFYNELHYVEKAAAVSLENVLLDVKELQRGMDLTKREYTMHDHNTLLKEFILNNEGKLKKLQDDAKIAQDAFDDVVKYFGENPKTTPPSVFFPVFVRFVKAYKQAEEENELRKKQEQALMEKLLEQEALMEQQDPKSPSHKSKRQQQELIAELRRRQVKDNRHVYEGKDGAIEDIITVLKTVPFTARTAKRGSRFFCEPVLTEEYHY

The target in this experiment is FMNL2-birA* fusion protein (human) (UniProt Q96PY5). Briefly: proximity labelling; BioID validation: tagged candidate coexpressed with FMNL2-birA* in HEK293T/17, overnight biotin, lysis in Co-IP buffer (50 mM Tris pH 7.0, 150 mM NaCl, 0.5% Triton-X-100), precipitated with GFP-trap beads (MARK2: anti-DYKDDDDK beads), biotinylation detected with ….

These are yes or no findings as the source states them, for the method shown. In cells and extracts the contact can be indirect. These calls come from enrichment with a bait or labelling near it, and not all partners need be listed. Tags and fused reporters may be left off the sequences shown.

B1: EGFP-PHACTR4 (protein, UniProt Q8IZ21 1-702)
chain: MEDPFEEADQPTTEPGMVLDSVEAGDTTPPTKRKSKFSGFGKIFKPWKWRKKKSSDKFKETSEVLERKISMRKPREELVKRGVLLEDPEQGGEDPGKPSDAMLKNGHTTPIGNARSSSPVQVEEEPVRLASLRKAIPEEDLKKRLGSTGSQPNSEAESVPENVPKPPLLPPKRPLSSSHEASEGQAKDATSSGGTARFIISTSITTAPAATTAATSLAKTVNLSVTPSPAPRTLPAAPASTNTTATPSLTHMVPAKQPPIPPPKPAHRNSNPVIAELSQAINSGTLLSKPSPPLPPKRGIPSTSVPTLESAAAITTKTPSDEREKSTCSMGSELLPMISPRSPSPPLPTHIPPEPPRTPPFPAKTFQVVPEIEFPPSLDLHQEIPQQEDQKKEVPKRILDQNFGEPHIPSRLPPLPLHIRIQQALTSPLPMTPILEGSHRAHSLLFENSDSFSEDSSTLGRTRSLPITIEMLKVPDDEEEEEQTCPSTFSEEMTPTSVIPKLPQCLREEEEKESDSDSEGPIQYRDEEDEDESYQSALANKVKRKDTLAMKLNHRPSEPELNLNSWPCKSKEEWNEIRHQIGNTLIRRLSQRPTPEELEQRNILQPKNEADRQAEKREIKRRLTRKLSQRPTVAELLARKILRFNEYVEVTDAQDYDRRADKPWTKLTPADKAAIRKELNEFKSSEMEVHEESKHFTRYHRP
In the case of B1, the binding result is reported as “binds”.

B2: GFP-tagged YKT6 (protein, UniProt O15498 1-198)
chain: MKLYSLSVLYKGEAKVVLLKAAYDVSSFSFFQRSSVQEFMTFTSQLIVERSSKGTRASVKEQDYLCHVYVRNDSLAGVVIADNEYPSRVAFTLLEKVLDEFSKQVDRIDWPVGSPATIHYPALDGHLSRYQNPREADPMTKVQAELDETKIILHNTMESLLERGEKLDDLVSKSEVLGTQSKAFYKTARKQNSCCAIM
With B2, the binding result was “binds”.
